Assay results: publication PMC6048049
Results are given in words; binding and its absence hold for the method and conditions named. Binding seen in cells or lysates may run through a third protein. Some entries that bind do so weakly or less than the wild type.

Sequences of proteins named here, by UniProt entry; tags and fusion partners are left off. Residues count along the entry.
UniProt P08069, residues 741-1367: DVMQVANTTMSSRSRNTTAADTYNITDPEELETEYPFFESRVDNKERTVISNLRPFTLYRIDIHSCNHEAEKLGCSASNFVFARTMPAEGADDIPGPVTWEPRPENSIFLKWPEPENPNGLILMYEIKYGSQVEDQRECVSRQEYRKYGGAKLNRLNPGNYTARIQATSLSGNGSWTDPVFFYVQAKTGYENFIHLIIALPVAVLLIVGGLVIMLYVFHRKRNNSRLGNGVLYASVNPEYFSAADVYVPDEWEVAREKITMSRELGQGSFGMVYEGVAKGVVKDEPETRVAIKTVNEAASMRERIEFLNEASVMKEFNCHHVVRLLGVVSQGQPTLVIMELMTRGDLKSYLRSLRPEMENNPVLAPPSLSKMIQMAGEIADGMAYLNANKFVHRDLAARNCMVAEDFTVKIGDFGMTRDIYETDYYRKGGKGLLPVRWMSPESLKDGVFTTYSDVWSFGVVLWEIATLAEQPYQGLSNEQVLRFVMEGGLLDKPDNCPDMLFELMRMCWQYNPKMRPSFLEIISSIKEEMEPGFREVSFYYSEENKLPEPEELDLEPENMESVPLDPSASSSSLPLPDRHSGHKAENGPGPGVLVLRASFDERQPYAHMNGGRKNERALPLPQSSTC
UniProt Q05397: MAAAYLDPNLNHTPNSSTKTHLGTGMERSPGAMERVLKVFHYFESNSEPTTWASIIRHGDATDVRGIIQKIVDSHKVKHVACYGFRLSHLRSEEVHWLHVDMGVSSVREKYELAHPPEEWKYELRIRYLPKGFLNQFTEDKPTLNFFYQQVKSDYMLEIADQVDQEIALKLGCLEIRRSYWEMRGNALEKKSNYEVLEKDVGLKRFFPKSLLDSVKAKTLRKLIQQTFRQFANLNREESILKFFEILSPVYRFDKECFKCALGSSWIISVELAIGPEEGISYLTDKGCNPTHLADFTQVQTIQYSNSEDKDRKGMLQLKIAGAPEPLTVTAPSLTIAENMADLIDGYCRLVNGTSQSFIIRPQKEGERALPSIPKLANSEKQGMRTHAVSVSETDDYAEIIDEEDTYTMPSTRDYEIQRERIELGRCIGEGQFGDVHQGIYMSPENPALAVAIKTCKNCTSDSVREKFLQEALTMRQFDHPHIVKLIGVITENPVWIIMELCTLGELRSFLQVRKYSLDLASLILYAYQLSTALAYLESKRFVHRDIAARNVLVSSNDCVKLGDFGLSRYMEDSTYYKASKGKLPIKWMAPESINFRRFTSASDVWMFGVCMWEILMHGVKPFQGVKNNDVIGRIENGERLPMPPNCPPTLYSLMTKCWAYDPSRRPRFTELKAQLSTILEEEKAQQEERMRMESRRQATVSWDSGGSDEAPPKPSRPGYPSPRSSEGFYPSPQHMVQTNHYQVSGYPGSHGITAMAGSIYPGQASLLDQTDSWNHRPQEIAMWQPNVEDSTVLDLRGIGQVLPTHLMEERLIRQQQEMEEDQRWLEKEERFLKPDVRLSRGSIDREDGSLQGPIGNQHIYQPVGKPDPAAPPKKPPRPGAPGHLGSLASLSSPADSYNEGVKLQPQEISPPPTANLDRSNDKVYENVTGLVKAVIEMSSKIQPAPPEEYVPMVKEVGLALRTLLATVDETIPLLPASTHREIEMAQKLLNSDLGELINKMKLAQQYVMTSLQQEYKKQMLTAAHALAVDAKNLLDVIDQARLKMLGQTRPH

Target: T1, Tescalcin (human (endogenous in A549)) (UniProt Q96BS2)
T1 sequence: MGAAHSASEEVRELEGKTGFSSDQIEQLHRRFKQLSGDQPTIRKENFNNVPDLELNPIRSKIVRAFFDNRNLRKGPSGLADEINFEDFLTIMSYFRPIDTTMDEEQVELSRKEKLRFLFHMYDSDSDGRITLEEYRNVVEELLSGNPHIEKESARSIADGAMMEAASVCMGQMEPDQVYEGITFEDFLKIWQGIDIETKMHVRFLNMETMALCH
Assay: co-IP; endogenous proteins in A549 cells; NP-40 lysis buffer with protease inhibitors; lysate incubated with antibody against TESC or c-Src overnight at 4 °C, protein A/G agarose beads 4 h, three washes, immunoblot; c-Src/IGF1Rβ also in cells treated with TESC siRNA

With “insulin-like growth factor 1 receptor β (from UniProt P08069 741-1367)” the binding was “binds”.

“focal adhesion kinase (from UniProt Q05397 1-1052) (enzyme)” was tested, and the binding was “no binding”.
